{
  "sequences": {"note": "Amino acid sequences for entries named in this document (tags omitted). Residues count along the entry.", "UniProt P05091, residues 18-517": "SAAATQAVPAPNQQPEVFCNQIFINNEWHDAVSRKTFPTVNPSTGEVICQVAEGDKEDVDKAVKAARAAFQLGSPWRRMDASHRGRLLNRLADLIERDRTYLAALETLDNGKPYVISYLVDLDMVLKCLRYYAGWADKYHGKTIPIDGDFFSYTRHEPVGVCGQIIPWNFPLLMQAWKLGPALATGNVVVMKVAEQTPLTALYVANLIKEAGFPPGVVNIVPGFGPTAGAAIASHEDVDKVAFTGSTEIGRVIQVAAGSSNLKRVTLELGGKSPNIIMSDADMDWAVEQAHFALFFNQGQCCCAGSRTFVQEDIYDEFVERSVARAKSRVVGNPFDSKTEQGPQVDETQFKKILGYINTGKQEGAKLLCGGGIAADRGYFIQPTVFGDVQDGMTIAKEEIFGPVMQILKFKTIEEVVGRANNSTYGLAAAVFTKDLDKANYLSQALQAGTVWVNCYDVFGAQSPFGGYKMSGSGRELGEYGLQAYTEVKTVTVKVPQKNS"},
  "source": "paper PMC10646281",
  "binders": {"B1": {"name": "Lin-28 Homolog B (LIN28B), endogenous in HUVECs (protein, UniProt Q6ZN17 1-250)", "chain": "MAEGGASKGGGEEPGKLPEPAEEESQVLRGTGHCKWFNVRMGFGFISMINREGSPLDIPVDVFVHQSKLFMEGFRSLKEGEPVEFTFKKSSKGLESIRVTGPGGSPCLGSERRPKGKTLQKRKPKGDRCYNCGGLDHHAKECSLPPQPKKCHYCQSIMHMVANCPHKNVAQPPASSQGRQEAESQPCTSTLPREVGGGHGCTSPPFPQEARAEISERSGRSPQEASSTKSSIAPEEQSKKGPSVQKRKKT"}, "B2": {"name": "HA-LIN28B (protein, UniProt Q6ZN17 1-250)", "chain": "MAEGGASKGGGEEPGKLPEPAEEESQVLRGTGHCKWFNVRMGFGFISMINREGSPLDIPVDVFVHQSKLFMEGFRSLKEGEPVEFTFKKSSKGLESIRVTGPGGSPCLGSERRPKGKTLQKRKPKGDRCYNCGGLDHHAKECSLPPQPKKCHYCQSIMHMVANCPHKNVAQPPASSQGRQEAESQPCTSTLPREVGGGHGCTSPPFPQEARAEISERSGRSPQEASSTKSSIAPEEQSKKGPSVQKRKKT"}},
  "key": {"[1]": {"target": "Aldehyde dehydrogenase 2 (ALDH2), endogenous in HUVECs (human (endogenous in HUVECs)) (UniProt P05091)", "assay": "co-IP; endogenous ALDH2 and LIN28B in HUVECs; also HUVECs treated with Ang II (more binding) or with Daidzin (less binding)"}, "Flag-ALDH2": {"target": "Flag-ALDH2 (UniProt P05091)", "assay": "co-IP; Flag-ALDH2 co-transfected with HA-LIN28B into HEK293T; cell lysates precipitated with an anti-Flag antibody, followed by western blotting"}},
  "note": "Results are given in words; binding and its absence hold for the method and conditions named. Binding seen in cells or lysates may run through a third protein. Some binding calls cover weakened binding; strength is not graded here. For some assays here: Tags and fused reporters may be left off the sequences shown.",
  "data": [
    {"binder": "B1", "values": [
      {"measurement": "binding", "setting": "[1]", "value": "binds"}
    ]},
    {"binder": "B2", "values": [
      {"measurement": "binding", "setting": "Flag-ALDH2", "value": "binds"}
    ]}
  ]
}
